Test results taken from the supplement of paper PMC4749390.
Where a name gives a salt, the structure may show the parent alone. Some of the results follow. Repeats in this data set agree poorly, so a single value says little.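 JEG3 cells stably express tetracycline-inducible wild-type human LRH-1, a highly sumoylated nuclear receptor. SUMO-sensitive transcripts APOC3 and MUC1, increased by SUMO-deficient LRH-1 or UBC9 knockdown, were quantified by RT-qPCR relative to TBP and DMSO controls. Primary hits had robust Z-scores above +2 or below -2, before toxicity and TBP filtering.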

Test system: JEG3 expressing hLRH-1
Assay: MUC1 transcript change (ddCt vs TBP and DMSO), Z-score over library; higher = higher MUC1 expression
Conditions: 10 µM; time (hr): 24

Going from `CC(=O)N(CC(O)CO)c1c(I)c(C(=O)NCCO)c(I)c(C(=O)NCC(O)CO)c1I` (configuration not stated) [ioxilan] to `CC(=O)Nc1c(I)c(NC(C)=O)c(I)c(C(=O)O)c1I` [diatrizoic acid], the “MUC1 transcript change (Z-score)” value rises from -0.0877 to 0.368.

Going from `CC(C(=O)O)c1ccc2c(c1)Cc1cccnc1O2` (configuration not stated) [pranoprofen] to `CC(C)Cc1ccc([C@H](C)C(=O)O)cc1` [dexibuprofen], the “MUC1 transcript change (Z-score)” value falls from 1.16 to -0.0511.

Going from `COC(=O)Nc1nc2cc(Sc3ccccc3)ccc2[nH]1` [fenbendazole] to `CCOC(=O)Nc1nc2ccccc2[nH]1` [lobendazole], the “MUC1 transcript change (Z-score)” value rises from -0.351 to 0.756.

Compared with `CCCCC(CC)COC(=O)CC(C(=O)OCC(CC)CCCC)S(=O)(=O)O` (configuration not stated) [docusate sodium], `CCCCCCCCCCCCCCCC(=O)OC/C=C(C)/C=C/C=C(C)/C=C/C1=C(C)CCCC1(C)C` [retinyl palmitate] is higher in “MUC1 transcript change (Z-score)” value: -0.287 for the first, 0.716 for the second.

First: COC(=O)[C@H]1[C@H]2C[C@@H]3c4[nH]c5cc(OC)ccc5c4CCN3C[C@H]2C[C@@H](OC(=O)c2cc(OC)c(OC)c(OC)c2)[C@@H]1OC [reserpine]
Second: COc1cc(C(=O)N2CCOCC2)cc(OC)c1OC [trimetozine]
The “MUC1 transcript change (Z-score)” value of the first is lower: 0.00861 for the first, 1.37 for the second.

Going from `O=C(OOC(=O)c1ccccc1)c1ccccc1` [benzoyl peroxide] to `O=C(Oc1cccc2cccnc12)c1ccccc1` [benzoxiquine], the “MUC1 transcript change (Z-score)” value rises from 0.649 to 0.857.

Compared with `CC[C@H]1OC(=O)[C@H](C)[C@@H](O[C@H]2C[C@@](C)(OC)[C@@H](O)[C@H](C)O2)[C@H](C)[C@@H](O[C@@H]2O[C@H](C)C[C@H](N(C)C)[C@H]2O)[C@](C)(O)C[C@@H](C)/C(=N\OCOCCOC)[C@H](C)[C@@H](O)[C@]1(C)O` [roxithromycin], `C[C@@H]1C/C=C/C=C/C=C/C=C/[C@H](O[C@@H]2O[C@H](C)[C@@H](O)[C@H](N)[C@@H]2O)C[C@@H]2O[C@](O)(C[C@@H](O)C[C@H]3O[C@@H]3/C=C/C(=O)O1)C[C@H](O)[C@H]2C(=O)O` [natamycin] is lower in “MUC1 transcript change (Z-score)” value: 0.396 for the first, 0.322 for the second.

Going from `CC[C@H](C)[C@H](N)C(=O)O` [isoleucine (l)] to `CC(C)(CO)[C@@H](O)C(=O)NCCC(=O)O` [pantothenic acid(d) na salt], the “MUC1 transcript change (Z-score)” value rises from -0.621 to 0.783.

Compared with `C[C@@](Cc1ccc(O)c(O)c1)(NN)C(=O)O` [S-(-)-Carbidopa], `NC[C@H](O)c1ccc(O)c(O)c1` [norepinephrine] is lower in “MUC1 transcript change (Z-score)” value: -0.125 for the first, -0.27 for the second.

Going from `O=C(O)CCNC(=O)c1ccccc1` [betamipron] to `COC(=O)[C@H](Cc1ccccc1)NC(=O)[C@@H](N)CC(=O)O` [aspartame], the “MUC1 transcript change (Z-score)” value falls from 0.734 to -0.77.

First: C/C(=C(/CCOP(=O)(O)O)SC(=O)c1ccccc1)N(C=O)Cc1cnc(C)nc1N (stereo in doubt) [benfotiamine]
Second: CC(Cc1cccc(C(F)(F)F)c1)NCCOC(=O)c1ccccc1 (configuration not stated) [benfluorex hydrochloride]
The “MUC1 transcript change (Z-score)” value of the first is lower: 0.64 for the first, 1.08 for the second.

First: Oc1c(Cl)cc(Cl)c2cccnc12 [chloroxine]
Second: CN(C)CCN(Cc1ccc(Cl)cc1)c1ccccn1 [chloropyramine hydrochloride]
The “MUC1 transcript change (Z-score)” value of the first is higher: 3.37 for the first, -0.366 for the second.

Going from `OCC(O)[C@@H](O)CO` (some centres not stated) [erythritol] to `O=C(O)P(=O)(O)O` [foscarnet sodium], the “MUC1 transcript change (Z-score)” value rises from 0.399 to 0.414.

Compared with `CC(C)OC(=O)C(C)(C)Oc1ccc(C(=O)c2ccc(Cl)cc2)cc1` [fenofibrate], `CC(=O)Nc1ccc(OC(=O)c2ccccc2O)cc1` [acetaminosalol] is higher in “MUC1 transcript change (Z-score)” value: -2.32 for the first, -0.85 for the second.

Compared with `N=C(NCCCCCCNC(=N)NC(=N)Nc1ccc(Cl)cc1)NC(=N)Nc1ccc(Cl)cc1` [chlorhexidine], `CC(=O)Nc1ccc(S(=O)(=O)c2ccc(NC(C)=O)cc2)cc1` [acedapsone] is higher in “MUC1 transcript change (Z-score)” value: -1.36 for the first, -0.291 for the second.

Compared with `CN(C)CCOC(c1ccccc1)c1ccccc1.Cn1c(=O)c2[nH]c(Cl)nc2n(C)c1=O` [dimenhydrinate], `CO/C(O)=C1/C(C)=NC(C)=C(C(=O)OCCN2CCN(C(c3ccccc3)c3ccccc3)CC2)C1c1cccc([N+](=O)[O-])c1` (configuration not stated) [manidipine hydrochloride] is higher in “MUC1 transcript change (Z-score)” value: -0.444 for the first, 0.683 for the second.

Going from `CO/N=C(\C(=O)N[C@@H]1C(=O)N2C(C(=O)O)=C(COC(C)=O)CS[C@H]12)c1csc(N)n1` [cefotaxime sodium] to `O=C(O)C1=C(CSc2nnnn2CS(=O)(=O)O)CS[C@@H]2[C@H](NC(=O)[C@H](O)c3ccccc3)C(=O)N12` [cefonicid sodium], the “MUC1 transcript change (Z-score)” value falls from 0.851 to -0.885.

Going from `CC(=O)Nc1c(I)cc(I)c(C(=O)O)c1I` [acetriazoic acid] to `O=C(c1ccccc1)c1ccc2n1CCC2C(=O)O` (configuration not stated) [ketorolac tromethamine], the “MUC1 transcript change (Z-score)” value rises from 0.772 to 0.871.

Compared with `C=COCC(F)(F)F` [fluroxene], `CC(C)(C)NC[C@H](O)COc1ccccc1C1CCCC1` [penbutolol sulfate] is higher in “MUC1 transcript change (Z-score)” value: 0.442 for the first, 0.802 for the second.

Going from `O=NN(CCCl)C(=O)NC1CCCCC1` [lomustine] to `CC1CCC(NC(=O)N(CCCl)N=O)CC1` (configuration not stated) [semustine], the “MUC1 transcript change (Z-score)” value rises from -0.568 to 0.0218.

First: CCN(CC)CCNC(=O)c1ccc(N)cc1 [Procainamide hydrochloride]
Second: CCCCOC(=O)c1ccc(O)cc1 [butyl paraben]
The “MUC1 transcript change (Z-score)” value of the first is higher: 0.341 for the first, 0.267 for the second.

Compared with `CN[C@@H]1[C@@H](O[C@H]2O[C@H](CO)[C@@H](N)[C@H](O)[C@H]2O)O[C@H]2C[C@@H](N)[C@H](O[C@H]3[C@H](O)[C@@H](O)[C@H](N)C[C@@H]3N)O[C@@H]2[C@@H]1O` [apramycin sulfate], `OCc1ccccc1O[C@@H]1O[C@H](CO)[C@@H](O)[C@H](O)[C@H]1O` [salicin] is lower in “MUC1 transcript change (Z-score)” value: 0.0392 for the first, -4.23 for the second.

Compared with `Nc1nc(O)c2ncn(COCCO)c2n1` [Acyclovir], `Oc1[nH]cnc2nncc1-2` [Allopurinol] is lower in “MUC1 transcript change (Z-score)” value: 1.32 for the first, 0.118 for the second.

Compared with `CCOC(=O)[C@H](CCc1ccccc1)N[C@H]1CCc2ccccc2N(CC(=O)O)C1=O` [benazepril hydrochloride], `CC1Cc2ccccc2N1NC(=O)c1ccc(Cl)c(S(N)(=O)=O)c1` (configuration not stated) [indapamide] is higher in “MUC1 transcript change (Z-score)” value: 0.821 for the first, 0.928 for the second.

Compared with `CC(C)(CO)C(O)C(=O)NCCC(=O)NCCSSCCNC(=O)CCNC(=O)C(O)C(C)(C)CO` (configuration not stated) [pantethine], `CC[C@H](C)C(=O)O[C@H]1C[C@H](O)C=C2C=C[C@H](C)[C@H](CC[C@@H](O)C[C@@H](O)CC(=O)O)[C@H]21` [pravastatin sodium] is higher in “MUC1 transcript change (Z-score)” value: -0.62 for the first, -0.234 for the second.

Compared with `CC(C)[N+]1(C)C2CC[C@H]1C[C@@H](OC(=O)C(CO)c1ccccc1)C2` (some centres not stated) [ipratropium bromide], `CC(C)n1c(/C=C/[C@@H](O)C[C@@H](O)CC(=O)O)c(-c2ccc(F)cc2)c2ccccc21` [fluvastatin] is higher in “MUC1 transcript change (Z-score)” value: -0.427 for the first, -0.129 for the second.

Going from `N#CC(c1ccc(Cl)cc1)c1c(Cl)cc(-n2ncc(=O)[nH]c2=O)cc1Cl` (configuration not stated) [diclazuril] to `CN1CCN(c2cc3c(cc2F)c(=O)c(C(=O)O)cn3-c2ccc(F)cc2)CC1` [difloxacin hydrochloride], the “MUC1 transcript change (Z-score)” value falls from 1.69 to -0.224.

First: N[C@H]1CONC1=O [levcycloserine]
Second: CC1COc2c(N3CCN(C)CC3)c(F)cc3c(=O)c(C(=O)O)cn1c23 (configuration not stated) [ofloxacin]
The “MUC1 transcript change (Z-score)” value of the first is higher: 0.567 for the first, 0.0526 for the second.

First: CC(C)CC(NC(=O)C(C)NC(=O)CNC(=O)C(NC=O)C(C)C)C(=O)NC(C)C(=O)NC(C(=O)NC(C(=O)NC(C(=O)NC(Cc1c[nH]c2ccccc12)C(=O)NC(CC(C)C)C(=O)NC(Cc1c[nH]c2ccccc12)C(=O)NC(CC(C)C)C(=O)NC(Cc1c[nH]c2ccccc12)C(=O)NC(CC(C)C)C(=O)NC(Cc1c[nH]c2ccccc12)C(=O)NCCO)C(C)C)C(C)C)C(C)C (configuration not stated) [gramicidin (gramicidin a shown)]
Second: C=C(NC(=O)C(=C)NC(=O)c1csc(C2=NC3c4csc(n4)C4NC(=O)c5csc(n5)C(C(C)(O)C(C)O)NC(=O)C5CSC(=N5)/C(=C\C)NC(=O)C(C(C)O)NC(=O)c5csc(n5)C3(CC2)NC(=O)C(C)NC(=O)C(=C)NC(=O)C(C)NC(=O)C(C(C)CC)NC2C=Cc3c(C(C)O)cc(nc3C2O)C(=O)OC4C)n1)C(N)=O (configuration not stated) [thiostrepton]
The “MUC1 transcript change (Z-score)” value of the first is lower: -0.538 for the first, 1.08 for the second.

Going from `CC#C[C@]1(O)CC[C@H]2[C@@H]3CCC4=CC(=O)CCC4=C3[C@@H](c3ccc(N(C)C)cc3)C[C@@]21C` [mifepristone] to `C#C[C@]1(OC(C)=O)CC[C@H]2[C@@H]3CCC4=CC(=O)CC[C@@H]4[C@H]3CC[C@@]21C` [norethindrone acetate], the “MUC1 transcript change (Z-score)” value rises from -0.873 to 0.134.

First: Cc1ccc(N(CC2=NCCN2)c2cccc(O)c2)cc1 [Phentolamine mesylate]
Second: CC(CN(C)C)CN1c2ccccc2Sc2ccccc21 (configuration not stated) [trimeprazine tartrate]
The “MUC1 transcript change (Z-score)” value of the first is higher: 0.308 for the first, -0.439 for the second.

Compared with `O=c1ccc2ccccc2o1` [coumarin], `Cc1cc(C)nc(NS(=O)(=O)c2ccc(N)cc2)n1` [sulfamethazine] is lower in “MUC1 transcript change (Z-score)” value: 0.892 for the first, 0.316 for the second.

Compared with `CC1(C)O[C@@H]2C[C@H]3[C@@H]4C[C@H](F)C5=CC(=O)C=C[C@]5(C)[C@@]4(F)[C@@H](O)C[C@]3(C)[C@]2(C(=O)CO)O1` [fluocinolone acetonide], `CC(=O)OCC(=O)[C@@]12OC3(CCCC3)O[C@@H]1C[C@H]1[C@@H]3CCC4=CC(=O)C=C[C@]4(C)[C@@]3(F)[C@@H](O)C[C@@]12C` [amcinonide] is lower in “MUC1 transcript change (Z-score)” value: -0.0491 for the first, -1.27 for the second.

Compared with `COc1cc(NS(=O)(=O)c2ccc(N)cc2)ncn1` [sulfamonomethoxine], `N=C(N)NS(=O)(=O)c1ccc(N)cc1` [sulfaguanidine] is lower in “MUC1 transcript change (Z-score)” value: 0.537 for the first, -1.21 for the second.

Compared with `Cc1ncc([N+](=O)[O-])n1CC(C)O` (configuration not stated) [secnidazole], `NC(=O)c1ccc([N+](=O)[O-])cc1Cl` [aklomide] is lower in “MUC1 transcript change (Z-score)” value: 0.508 for the first, -0.477 for the second.

Going from `CCC(=O)OCC(=O)C1(OC(=O)CC)C(C)CC2C3CCC4=CC(=O)C=CC4(C)C3(Cl)C(O)CC21C` (configuration not stated) [beclomethasone dipropionate] to `Sc1[nH]cnc2ncnc1-2` [mercaptopurine], the “MUC1 transcript change (Z-score)” value rises from -0.18 to 1.51.
